Experimental data: PubChem BioAssay AID1259425 (University of Nebraska Medical Center, 2018)
Purpose: 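Seek colon cancer weak points whose silencing resembles KSR1 loss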 (primary screen). Cell system: HCT116 human colon cancer cells. Knock-down reagent: siRNA pool against human genes, 50 nM siRNA. Measurement: 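After 50 nM siRNA pool, branched-DNA assay measures six marker transcripts per well, minus blank, normalised to the geometric mean of two housekeeping transcripts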. Direction: BNIP3L mRNA: higher = more BNIP3L transcript after knockdown; NDRG1 mRNA: higher = more NDRG1 transcript after knockdown; BNIP3 mRNA: higher = more BNIP3 transcript after knockdown; ALDOC mRNA: higher = more ALDOC transcript after knockdown; ACSL5 mRNA: higher = more ACSL5 transcript after knockdown.
In all, the deposit lists about 14,000 reagents; this is an unselected part. The record does not give: the time to read-out.

no.	gene	BNIP3L mRNA, set 1	NDRG1 mRNA, set 1	BNIP3 mRNA, set 1	ALDOC mRNA, set 1	ACSL5 mRNA, set 1
1	SSX3	0.371	0.379	0.395	0.036	0.169
2	CHFR	0.0769	0.131	0.287	0.0274	0.123
3	ARAP3	0.114	0.226	0.245	0.0395	0.186
4	PCSK4	0.109	0.09	0.319	0.026	0.108
5	KIF20A	0.0617	0.222	0.284	0.0201	0.25
6	ZNF10	0.101	0.0696	0.333	0.00721	0.142
7	ABCA9	0.131	0.199	0.322	0.0234	0.136
8	SCAMP1	0.189	0.288	0.428	0.0512	0.157
9	ATG14	0.112	0.115	0.224	0.0151	0.146
10	RNF26	0.0697	0.169	0.25	0.0574	0.135
11	TBCA	0.0874	0.0806	0.242	0.0397	0.0627
12	MRPS17	0.109	0.689	0.315	0.0671	0.301
13	MCMBP	0.117	0.187	0.243	0.0356	0.253
14	TERF1	0.0735	0.163	0.209	0.0167	0.15
15	SGCD	0.149	0.224	0.377	0.0331	0.246
16	AFTPH	0.217	0.174	0.309	0.0407	0.184
17	ANKH	0.0279	0.248	0.34	0.0226	0.252
18	ZMYM5	0.179	0.218	0.289	0.0351	0.126
19	LETMD1	0.0454	0.186	0.3	0.015	0.108
20	SNX17	0.133	0.0944	0.338	0.0472	0.179

Copied from the entries so far (2 entries):
no.	gene	BNIP3L mRNA, set 1	NDRG1 mRNA, set 1	BNIP3 mRNA, set 1	ALDOC mRNA, set 1	ACSL5 mRNA, set 1
9	ATG14	0.112	0.115	0.224	0.0151	0.146
10	RNF26	0.0697	0.169	0.25	0.0574	0.135
